Source: the supplement of paper PMC12067093, “Discovery and optimisation of a covalent ligand for TRIM25 and its application to targeted protein ubiquitination” (Chemical Science, 2025)
The list shows a part of the results.

Chains of the proteins cited; added tags and fusions are not shown. Lines headed by an entry give the natural chain unless they say otherwise; changes in a name come on top.
UniProt Q8NAF0: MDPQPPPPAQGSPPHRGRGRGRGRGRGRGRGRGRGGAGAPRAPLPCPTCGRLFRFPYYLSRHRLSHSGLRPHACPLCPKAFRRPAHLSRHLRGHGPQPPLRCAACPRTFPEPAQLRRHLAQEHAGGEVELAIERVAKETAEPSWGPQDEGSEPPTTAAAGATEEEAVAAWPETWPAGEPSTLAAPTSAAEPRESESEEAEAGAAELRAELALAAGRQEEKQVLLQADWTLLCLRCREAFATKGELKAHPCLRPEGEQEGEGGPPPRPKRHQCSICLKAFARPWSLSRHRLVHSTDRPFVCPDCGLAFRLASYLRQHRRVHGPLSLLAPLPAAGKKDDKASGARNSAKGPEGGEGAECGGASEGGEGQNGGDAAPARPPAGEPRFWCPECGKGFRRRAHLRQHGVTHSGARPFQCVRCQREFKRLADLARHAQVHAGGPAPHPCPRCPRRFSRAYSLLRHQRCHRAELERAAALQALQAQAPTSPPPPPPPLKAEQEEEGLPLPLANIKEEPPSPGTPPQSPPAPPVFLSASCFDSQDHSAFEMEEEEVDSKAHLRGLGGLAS
UniProt Q9Y3S2: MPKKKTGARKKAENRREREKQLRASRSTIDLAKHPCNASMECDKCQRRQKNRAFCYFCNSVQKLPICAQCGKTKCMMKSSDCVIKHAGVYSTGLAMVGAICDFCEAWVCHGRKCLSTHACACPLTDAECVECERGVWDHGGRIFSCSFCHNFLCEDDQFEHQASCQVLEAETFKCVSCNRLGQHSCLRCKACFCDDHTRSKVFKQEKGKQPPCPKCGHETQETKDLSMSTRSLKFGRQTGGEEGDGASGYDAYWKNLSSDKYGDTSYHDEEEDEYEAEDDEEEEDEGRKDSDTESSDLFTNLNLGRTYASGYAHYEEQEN
UniProt Q14202: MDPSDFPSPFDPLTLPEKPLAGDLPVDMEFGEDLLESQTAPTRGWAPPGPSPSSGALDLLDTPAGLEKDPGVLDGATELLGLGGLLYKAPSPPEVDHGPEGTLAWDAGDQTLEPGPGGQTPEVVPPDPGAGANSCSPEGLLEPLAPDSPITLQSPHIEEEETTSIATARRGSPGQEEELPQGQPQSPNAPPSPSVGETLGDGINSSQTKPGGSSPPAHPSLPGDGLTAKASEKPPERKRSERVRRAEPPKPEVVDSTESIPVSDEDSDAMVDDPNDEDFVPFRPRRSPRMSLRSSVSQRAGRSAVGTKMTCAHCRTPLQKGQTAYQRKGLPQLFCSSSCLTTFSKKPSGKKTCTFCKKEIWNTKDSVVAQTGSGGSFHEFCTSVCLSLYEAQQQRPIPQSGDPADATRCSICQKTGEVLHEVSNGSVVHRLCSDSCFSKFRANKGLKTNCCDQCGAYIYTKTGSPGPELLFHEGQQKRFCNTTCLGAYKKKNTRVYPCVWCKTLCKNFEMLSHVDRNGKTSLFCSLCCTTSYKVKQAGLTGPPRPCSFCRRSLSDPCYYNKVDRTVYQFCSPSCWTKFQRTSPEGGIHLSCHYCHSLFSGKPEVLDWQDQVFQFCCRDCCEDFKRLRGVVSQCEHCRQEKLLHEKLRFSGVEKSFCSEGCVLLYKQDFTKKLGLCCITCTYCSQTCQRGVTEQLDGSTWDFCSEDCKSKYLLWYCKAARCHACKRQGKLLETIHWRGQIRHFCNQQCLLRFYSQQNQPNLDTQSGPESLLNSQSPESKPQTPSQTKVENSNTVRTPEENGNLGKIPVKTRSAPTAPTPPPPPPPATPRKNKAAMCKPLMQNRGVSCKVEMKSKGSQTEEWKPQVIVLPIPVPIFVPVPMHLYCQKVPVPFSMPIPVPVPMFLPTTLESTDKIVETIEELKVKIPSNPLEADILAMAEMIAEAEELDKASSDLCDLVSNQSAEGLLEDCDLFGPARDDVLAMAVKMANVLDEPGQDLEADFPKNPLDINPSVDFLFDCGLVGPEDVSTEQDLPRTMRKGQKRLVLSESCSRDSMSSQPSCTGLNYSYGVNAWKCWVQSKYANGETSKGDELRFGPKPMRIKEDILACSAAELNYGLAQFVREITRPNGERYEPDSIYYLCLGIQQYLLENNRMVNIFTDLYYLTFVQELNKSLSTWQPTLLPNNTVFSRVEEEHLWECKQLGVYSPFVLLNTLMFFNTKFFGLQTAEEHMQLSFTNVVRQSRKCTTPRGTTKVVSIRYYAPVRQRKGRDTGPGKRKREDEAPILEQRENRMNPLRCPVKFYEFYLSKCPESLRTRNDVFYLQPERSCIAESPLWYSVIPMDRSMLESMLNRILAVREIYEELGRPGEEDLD
UniProt Q7Z3T8: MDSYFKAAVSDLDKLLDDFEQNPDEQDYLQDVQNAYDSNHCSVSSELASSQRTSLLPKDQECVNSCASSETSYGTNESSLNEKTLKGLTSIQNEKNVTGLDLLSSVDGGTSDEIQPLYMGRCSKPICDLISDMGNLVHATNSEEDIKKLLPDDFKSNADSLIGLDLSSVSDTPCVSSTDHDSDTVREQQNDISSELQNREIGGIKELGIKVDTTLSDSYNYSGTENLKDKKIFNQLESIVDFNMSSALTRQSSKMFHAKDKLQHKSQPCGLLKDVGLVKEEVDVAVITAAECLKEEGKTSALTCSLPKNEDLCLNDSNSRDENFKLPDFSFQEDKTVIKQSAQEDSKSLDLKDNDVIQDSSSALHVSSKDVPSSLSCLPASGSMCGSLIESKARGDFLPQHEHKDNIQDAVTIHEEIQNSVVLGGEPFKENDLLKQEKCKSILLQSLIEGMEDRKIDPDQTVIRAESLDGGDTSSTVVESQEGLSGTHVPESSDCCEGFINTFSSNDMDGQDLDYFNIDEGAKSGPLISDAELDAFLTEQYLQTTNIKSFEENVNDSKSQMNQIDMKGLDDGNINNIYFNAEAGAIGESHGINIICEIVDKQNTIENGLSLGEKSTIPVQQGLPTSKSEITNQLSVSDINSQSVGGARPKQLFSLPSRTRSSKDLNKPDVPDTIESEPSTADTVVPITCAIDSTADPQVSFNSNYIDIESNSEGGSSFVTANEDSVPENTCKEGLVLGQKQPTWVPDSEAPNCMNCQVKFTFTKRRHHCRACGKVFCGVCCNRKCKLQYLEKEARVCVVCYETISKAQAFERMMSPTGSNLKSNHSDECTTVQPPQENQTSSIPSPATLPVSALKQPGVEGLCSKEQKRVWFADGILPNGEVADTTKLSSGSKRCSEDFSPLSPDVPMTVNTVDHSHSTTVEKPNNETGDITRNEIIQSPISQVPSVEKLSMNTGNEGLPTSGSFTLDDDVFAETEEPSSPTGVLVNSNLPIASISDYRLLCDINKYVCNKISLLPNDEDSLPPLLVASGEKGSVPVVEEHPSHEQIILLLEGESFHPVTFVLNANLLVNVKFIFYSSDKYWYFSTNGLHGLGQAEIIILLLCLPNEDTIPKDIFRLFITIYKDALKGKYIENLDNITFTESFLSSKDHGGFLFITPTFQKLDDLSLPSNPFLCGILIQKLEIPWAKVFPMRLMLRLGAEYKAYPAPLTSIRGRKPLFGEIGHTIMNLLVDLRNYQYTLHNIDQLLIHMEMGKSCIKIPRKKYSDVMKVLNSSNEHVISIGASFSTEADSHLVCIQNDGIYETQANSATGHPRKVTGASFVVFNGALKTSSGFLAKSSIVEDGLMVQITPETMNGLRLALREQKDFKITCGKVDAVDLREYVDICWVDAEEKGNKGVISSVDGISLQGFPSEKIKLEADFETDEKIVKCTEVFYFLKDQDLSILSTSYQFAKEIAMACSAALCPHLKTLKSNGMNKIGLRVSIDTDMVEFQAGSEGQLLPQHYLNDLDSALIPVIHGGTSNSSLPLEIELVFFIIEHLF
UniProt Q96KR1: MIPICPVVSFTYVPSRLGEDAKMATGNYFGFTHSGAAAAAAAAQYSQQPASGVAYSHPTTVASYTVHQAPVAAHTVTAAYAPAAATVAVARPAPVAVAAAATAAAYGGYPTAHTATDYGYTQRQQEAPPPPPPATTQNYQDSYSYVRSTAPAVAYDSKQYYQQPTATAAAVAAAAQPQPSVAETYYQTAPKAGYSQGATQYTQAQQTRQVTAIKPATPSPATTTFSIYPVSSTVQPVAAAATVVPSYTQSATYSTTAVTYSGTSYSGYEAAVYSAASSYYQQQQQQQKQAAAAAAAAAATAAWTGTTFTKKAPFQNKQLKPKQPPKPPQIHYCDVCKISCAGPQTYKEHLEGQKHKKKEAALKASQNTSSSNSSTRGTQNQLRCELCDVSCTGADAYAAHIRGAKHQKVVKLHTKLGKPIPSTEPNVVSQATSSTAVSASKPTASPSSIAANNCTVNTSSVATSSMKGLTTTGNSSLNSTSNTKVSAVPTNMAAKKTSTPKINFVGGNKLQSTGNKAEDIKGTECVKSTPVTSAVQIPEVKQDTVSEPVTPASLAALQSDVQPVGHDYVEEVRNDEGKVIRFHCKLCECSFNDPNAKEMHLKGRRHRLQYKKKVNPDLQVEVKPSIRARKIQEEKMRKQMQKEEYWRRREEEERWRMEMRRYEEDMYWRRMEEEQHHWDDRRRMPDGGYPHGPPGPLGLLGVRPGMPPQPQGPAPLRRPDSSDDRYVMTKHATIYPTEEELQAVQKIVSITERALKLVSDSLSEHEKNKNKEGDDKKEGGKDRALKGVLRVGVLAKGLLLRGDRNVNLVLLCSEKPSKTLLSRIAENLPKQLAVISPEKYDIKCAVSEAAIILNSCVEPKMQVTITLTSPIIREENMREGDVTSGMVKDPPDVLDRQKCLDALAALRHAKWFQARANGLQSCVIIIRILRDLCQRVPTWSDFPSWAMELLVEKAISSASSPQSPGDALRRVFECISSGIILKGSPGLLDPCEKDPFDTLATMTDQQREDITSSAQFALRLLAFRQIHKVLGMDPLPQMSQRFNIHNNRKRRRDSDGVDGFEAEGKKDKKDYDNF
UniProt P52739: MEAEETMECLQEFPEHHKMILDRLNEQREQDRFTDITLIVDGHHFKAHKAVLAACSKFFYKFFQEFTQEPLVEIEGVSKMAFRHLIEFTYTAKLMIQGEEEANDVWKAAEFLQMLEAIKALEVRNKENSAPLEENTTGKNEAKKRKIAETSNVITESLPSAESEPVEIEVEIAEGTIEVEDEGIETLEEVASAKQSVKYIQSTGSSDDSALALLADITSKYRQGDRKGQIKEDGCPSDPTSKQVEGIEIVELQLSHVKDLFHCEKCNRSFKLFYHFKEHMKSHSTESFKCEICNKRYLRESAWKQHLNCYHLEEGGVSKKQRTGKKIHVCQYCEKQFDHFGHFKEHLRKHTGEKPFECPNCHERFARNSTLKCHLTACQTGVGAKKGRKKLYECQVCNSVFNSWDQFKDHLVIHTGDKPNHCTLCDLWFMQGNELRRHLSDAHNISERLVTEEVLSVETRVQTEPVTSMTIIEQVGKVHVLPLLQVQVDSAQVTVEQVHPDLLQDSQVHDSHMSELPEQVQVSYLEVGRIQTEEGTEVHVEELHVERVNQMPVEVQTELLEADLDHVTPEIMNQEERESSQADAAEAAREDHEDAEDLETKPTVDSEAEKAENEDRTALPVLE
UniProt A6NFI3: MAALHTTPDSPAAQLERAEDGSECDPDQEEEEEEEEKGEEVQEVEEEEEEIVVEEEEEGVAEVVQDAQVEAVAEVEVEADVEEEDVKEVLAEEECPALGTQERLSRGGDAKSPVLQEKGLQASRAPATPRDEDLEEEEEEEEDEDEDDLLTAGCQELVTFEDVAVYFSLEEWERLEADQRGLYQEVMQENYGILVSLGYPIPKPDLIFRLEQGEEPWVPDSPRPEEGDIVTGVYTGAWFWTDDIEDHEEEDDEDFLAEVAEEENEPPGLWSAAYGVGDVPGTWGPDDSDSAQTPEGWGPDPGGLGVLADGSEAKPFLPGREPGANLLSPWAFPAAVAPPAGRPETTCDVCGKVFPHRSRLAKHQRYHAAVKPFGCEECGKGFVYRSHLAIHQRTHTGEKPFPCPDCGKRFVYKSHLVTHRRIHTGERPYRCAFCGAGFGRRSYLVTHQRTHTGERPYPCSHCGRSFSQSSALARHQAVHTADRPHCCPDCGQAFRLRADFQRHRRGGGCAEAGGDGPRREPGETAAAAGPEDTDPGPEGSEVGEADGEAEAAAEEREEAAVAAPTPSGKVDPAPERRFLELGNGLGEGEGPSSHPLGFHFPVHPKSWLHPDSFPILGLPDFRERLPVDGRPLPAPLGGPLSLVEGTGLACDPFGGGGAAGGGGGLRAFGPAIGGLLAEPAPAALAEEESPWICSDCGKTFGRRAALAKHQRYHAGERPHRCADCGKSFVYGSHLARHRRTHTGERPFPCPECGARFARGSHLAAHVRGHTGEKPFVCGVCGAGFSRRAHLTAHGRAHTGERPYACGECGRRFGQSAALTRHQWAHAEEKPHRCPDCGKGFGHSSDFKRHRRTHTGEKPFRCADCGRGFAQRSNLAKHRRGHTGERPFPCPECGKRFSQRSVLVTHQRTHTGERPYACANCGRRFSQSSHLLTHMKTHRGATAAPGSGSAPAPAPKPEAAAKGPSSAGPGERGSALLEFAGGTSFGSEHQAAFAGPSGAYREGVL

Compound: Cc1cc(ccc1-c1ccccc1)C(=O)N1CCCN(CC1)C(=O)CCl [compound 10]
Experiment: probe-labelled cysteine peptide fold change vs DMSO (competition) (log2 fold change); higher = less target engagement (more negative = stronger competition)
Conditions: THP-1, incubation time: 4 h
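Also: competitive profiling in live THP-1 cells: cysteine peptides tagged with an iodoacetamide desthiobiotin (IA-DTB) probe, intensity after compound treatment relative to DMSO-treated cells.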

| Target | probe-labelled cysteine peptide fold change (10 µM) | probe-labelled cysteine peptide fold change (50 µM) |
| --- | --- | --- |
| ZMYM2_Q9UBW7_755_DFCSEDCCK (UniProt Q9UBW7) | 0.0133 | -0.919 |
| ZNF670_Q9BS34_114_VFICHSALHR (UniProt Q9BS34) | -0.237 | -0.962 |
| ZMYND8_Q9ULU4_103_EGQVLCCELCPR (UniProt Q9ULU4) | 0.0908 | 0.432 |
| ZFP91_Q96JP5_520_SYCSGTER (UniProt Q96JP5) | -0.138 | -0.0667 |
| ZNF217_O75362_286_CIPQLDPFTTFQAWQLATK (UniProt O75362) | -0.173 | -0.386 |
| ZNF579_Q8NAF0_250_AHPCLRPEGEQEGEGGPPPRPK (UniProt Q8NAF0) | -0.0859 | -0.0403 |
| ZNF319_Q9P2F9_307_ESSELLQHPCTPSGERPFR (UniProt Q9P2F9) | 0.014 | -0.221 |
| ZNF330_Q9Y3S2_120+122_CLSTHACACPLTDAECVECER (UniProt Q9Y3S2) | 0.16 | -0.138 |
| ZNF579_Q8NAF0_77_LSHSGLRPHACPLCPK (UniProt Q8NAF0) | 0.112 | -0.0195 |
| ZNF428_Q96B54_114_LCCPATAPQEAPAPEGR (UniProt Q96B54) | -0.106 | -0.534 |
| ZNF516_Q92618_827_ECQPLLLAR (UniProt Q92618) | 0.21 | 0.235 |
| ZMYM3_Q14202_311+314_MTCAHCR (UniProt Q14202) | -0.199 | -0.448 |
| ZNF451_Q9Y4E5_133_LCVDQWLK (UniProt Q9Y4E5) | 0.00075 | -0.288 |
| ZFYVE16_Q7Z3T8_292_EEVDVAVITAAECLK (UniProt Q7Z3T8) | -0.374 | -0.224 |
| ZNF579_Q8NAF0_74_LSHSGLRPHACPLCPK (UniProt Q8NAF0) | 0.2 | 0.222 |
| ZFR_Q96KR1_991_GSPGLLDPCEK (UniProt Q96KR1) | -0.188 | 0.343 |
| ZNF330_Q9Y3S2_70_LPICAQCGK (UniProt Q9Y3S2) | 0.0547 | -0.0961 |
| ZNF131_P52739_9_MEAEETMECLQEFPEHHK (UniProt P52739) | -0.115 | -0.179 |
| ZNF316_A6NFI3_808_AHTGERPYACGECGR (UniProt A6NFI3) | 0.0636 | 0.146 |
| ZNF524_Q96C55_161_HCNIHAGLRPFR (UniProt Q96C55) | 0.113 | -0.229 |

2 entries from above, with each value named:
ZNF330_Q9Y3S2_70_LPICAQCGK (UniProt Q9Y3S2)
  probe-labelled cysteine peptide fold change (10 µM) = 0.0547
  probe-labelled cysteine peptide fold change (50 µM) = -0.0961
ZNF131_P52739_9_MEAEETMECLQEFPEHHK (UniProt P52739)
  probe-labelled cysteine peptide fold change (10 µM) = -0.115
  probe-labelled cysteine peptide fold change (50 µM) = -0.179

Continuation.

| Target | probe-labelled cysteine peptide fold change (10 µM) | probe-labelled cysteine peptide fold change (50 µM) |
| --- | --- | --- |
| ZNF598_Q86UK7_864_SAWQATTQQAGLDCR (UniProt Q86UK7) | 0.0264 | -0.0742 |
| ZFYVE16_Q7Z3T8_1174_LDDLSLPSNPFLCGILIQK (UniProt Q7Z3T8) | 0.283 | 0.682 |
| ZNF598_Q86UK7_150_LCLQHLQIFTYER (UniProt Q86UK7) | 0.025 | 0.016 |
| ZNF316_A6NFI3_95_EVLAEEECPALGTQER (UniProt A6NFI3) | 0.175 | 0.146 |
| ZNF692_Q9BU19_366_SFSCPEPACGK (UniProt Q9BU19) | 0.162 | 0.163 |
| ZFR_Q96KR1_812_NVNLVLLCSEK (UniProt Q96KR1) | -0.121 | 0.402 |
| ZFYVE27_Q5T4F4_353_RYPTNNFGNCTGCSATFSVLK (UniProt Q5T4F4) | -0.216 | -0.378 |
| ZNF516_Q92618_165_GAEGSACAPGEAK (UniProt Q92618) | -0.148 | -0.0488 |
| ZMYM3_Q14202_314_MTCAHCR (UniProt Q14202) | -0.0797 | -0.364 |
| ZNF460_Q14592_313_KPFACSECGK (UniProt Q14592) | 0.187 | 0.173 |
| ZNF691_Q5VV52_257_THTGERPYECTECGR (UniProt Q5VV52) | 0.142 | 0.446 |
| ZNF217_O75362_310_VAICQEVK (UniProt O75362) | -0.0678 | 0.428 |
| ZFPL1_O95159_70_LVCYDLFHWACLNER (UniProt O95159) | -0.0626 | -0.0494 |
| ZMYND11_Q15326_73_DGLIVETLTVGCK (UniProt Q15326) | -0.167 | -0.446 |
| ZFP91_Q96JP5_313_CEMEGCGTVLAHPR (UniProt Q96JP5) | 0.0458 | 0.0552 |
| ZNF598_Q86UK7_119_QLLQHECPR (UniProt Q86UK7) | -0.206 | -0.265 |
| ZNF521_Q96K83_31_TEDGEALDCK (UniProt Q96K83) | -0.0474 | 0.342 |
| ZNF618_Q5T7W0_635+638_CSACALNSVVQSVLSK (UniProt Q5T7W0) | -0.111 | 0.166 |
| ZNF318_Q5VUA4_1363_SCSATMSK (UniProt Q5VUA4) | -0.204 | -0.789 |
